From article PMC4735750 come the findings set out here.

Amino acid sequences for entries named in this document (tags omitted).
UniProt Q92878: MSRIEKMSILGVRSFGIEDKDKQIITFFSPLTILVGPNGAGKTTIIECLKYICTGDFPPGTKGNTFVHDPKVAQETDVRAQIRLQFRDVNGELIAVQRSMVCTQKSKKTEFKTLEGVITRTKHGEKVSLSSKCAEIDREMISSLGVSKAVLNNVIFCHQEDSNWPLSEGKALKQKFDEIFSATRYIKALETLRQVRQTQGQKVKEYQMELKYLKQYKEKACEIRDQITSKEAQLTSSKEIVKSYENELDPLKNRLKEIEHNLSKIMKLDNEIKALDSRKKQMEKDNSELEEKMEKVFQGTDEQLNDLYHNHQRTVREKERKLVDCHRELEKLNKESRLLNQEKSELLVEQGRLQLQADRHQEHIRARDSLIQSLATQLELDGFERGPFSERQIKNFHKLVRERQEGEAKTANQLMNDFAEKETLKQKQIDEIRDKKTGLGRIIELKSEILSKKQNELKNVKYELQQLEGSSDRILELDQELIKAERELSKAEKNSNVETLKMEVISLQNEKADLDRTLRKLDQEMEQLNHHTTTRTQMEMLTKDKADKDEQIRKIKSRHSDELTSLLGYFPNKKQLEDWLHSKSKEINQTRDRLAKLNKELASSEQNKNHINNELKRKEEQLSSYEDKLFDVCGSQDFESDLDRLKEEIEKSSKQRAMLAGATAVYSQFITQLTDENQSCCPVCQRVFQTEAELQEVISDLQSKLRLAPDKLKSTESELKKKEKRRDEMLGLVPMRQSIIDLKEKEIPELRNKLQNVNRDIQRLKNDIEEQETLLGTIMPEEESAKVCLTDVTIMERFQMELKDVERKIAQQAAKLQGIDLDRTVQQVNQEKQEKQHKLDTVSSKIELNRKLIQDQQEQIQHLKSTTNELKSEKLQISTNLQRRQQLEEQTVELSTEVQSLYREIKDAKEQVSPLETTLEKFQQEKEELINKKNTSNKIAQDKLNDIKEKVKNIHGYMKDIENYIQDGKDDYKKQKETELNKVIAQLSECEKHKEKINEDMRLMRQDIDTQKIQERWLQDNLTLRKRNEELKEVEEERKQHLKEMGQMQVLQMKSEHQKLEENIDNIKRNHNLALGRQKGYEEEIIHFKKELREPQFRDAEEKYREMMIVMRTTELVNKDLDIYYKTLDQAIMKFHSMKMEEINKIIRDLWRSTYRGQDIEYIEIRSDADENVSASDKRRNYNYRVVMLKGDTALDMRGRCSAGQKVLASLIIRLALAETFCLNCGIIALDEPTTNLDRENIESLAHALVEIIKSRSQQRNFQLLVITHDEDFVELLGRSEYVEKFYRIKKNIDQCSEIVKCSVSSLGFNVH
UniProt O60934: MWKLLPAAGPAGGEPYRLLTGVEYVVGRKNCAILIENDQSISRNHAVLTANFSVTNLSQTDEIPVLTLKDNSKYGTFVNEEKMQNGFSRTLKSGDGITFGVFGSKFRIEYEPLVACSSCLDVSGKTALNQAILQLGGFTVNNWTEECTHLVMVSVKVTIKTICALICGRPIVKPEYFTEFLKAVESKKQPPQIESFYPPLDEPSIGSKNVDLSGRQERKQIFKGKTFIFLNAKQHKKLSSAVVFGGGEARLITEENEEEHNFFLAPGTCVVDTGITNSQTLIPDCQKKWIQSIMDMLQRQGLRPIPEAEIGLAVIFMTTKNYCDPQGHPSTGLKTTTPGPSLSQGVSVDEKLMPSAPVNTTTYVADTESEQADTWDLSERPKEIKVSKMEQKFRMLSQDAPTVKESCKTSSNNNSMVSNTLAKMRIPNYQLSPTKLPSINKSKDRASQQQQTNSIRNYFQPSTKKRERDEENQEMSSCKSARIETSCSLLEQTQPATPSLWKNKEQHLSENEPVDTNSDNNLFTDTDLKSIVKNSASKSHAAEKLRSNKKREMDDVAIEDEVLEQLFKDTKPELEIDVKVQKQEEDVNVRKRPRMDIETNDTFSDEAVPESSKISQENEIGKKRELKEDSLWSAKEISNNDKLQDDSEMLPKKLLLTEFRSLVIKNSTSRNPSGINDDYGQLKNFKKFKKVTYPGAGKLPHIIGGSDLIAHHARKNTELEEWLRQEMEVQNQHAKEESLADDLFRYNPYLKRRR
UniProt Q14676: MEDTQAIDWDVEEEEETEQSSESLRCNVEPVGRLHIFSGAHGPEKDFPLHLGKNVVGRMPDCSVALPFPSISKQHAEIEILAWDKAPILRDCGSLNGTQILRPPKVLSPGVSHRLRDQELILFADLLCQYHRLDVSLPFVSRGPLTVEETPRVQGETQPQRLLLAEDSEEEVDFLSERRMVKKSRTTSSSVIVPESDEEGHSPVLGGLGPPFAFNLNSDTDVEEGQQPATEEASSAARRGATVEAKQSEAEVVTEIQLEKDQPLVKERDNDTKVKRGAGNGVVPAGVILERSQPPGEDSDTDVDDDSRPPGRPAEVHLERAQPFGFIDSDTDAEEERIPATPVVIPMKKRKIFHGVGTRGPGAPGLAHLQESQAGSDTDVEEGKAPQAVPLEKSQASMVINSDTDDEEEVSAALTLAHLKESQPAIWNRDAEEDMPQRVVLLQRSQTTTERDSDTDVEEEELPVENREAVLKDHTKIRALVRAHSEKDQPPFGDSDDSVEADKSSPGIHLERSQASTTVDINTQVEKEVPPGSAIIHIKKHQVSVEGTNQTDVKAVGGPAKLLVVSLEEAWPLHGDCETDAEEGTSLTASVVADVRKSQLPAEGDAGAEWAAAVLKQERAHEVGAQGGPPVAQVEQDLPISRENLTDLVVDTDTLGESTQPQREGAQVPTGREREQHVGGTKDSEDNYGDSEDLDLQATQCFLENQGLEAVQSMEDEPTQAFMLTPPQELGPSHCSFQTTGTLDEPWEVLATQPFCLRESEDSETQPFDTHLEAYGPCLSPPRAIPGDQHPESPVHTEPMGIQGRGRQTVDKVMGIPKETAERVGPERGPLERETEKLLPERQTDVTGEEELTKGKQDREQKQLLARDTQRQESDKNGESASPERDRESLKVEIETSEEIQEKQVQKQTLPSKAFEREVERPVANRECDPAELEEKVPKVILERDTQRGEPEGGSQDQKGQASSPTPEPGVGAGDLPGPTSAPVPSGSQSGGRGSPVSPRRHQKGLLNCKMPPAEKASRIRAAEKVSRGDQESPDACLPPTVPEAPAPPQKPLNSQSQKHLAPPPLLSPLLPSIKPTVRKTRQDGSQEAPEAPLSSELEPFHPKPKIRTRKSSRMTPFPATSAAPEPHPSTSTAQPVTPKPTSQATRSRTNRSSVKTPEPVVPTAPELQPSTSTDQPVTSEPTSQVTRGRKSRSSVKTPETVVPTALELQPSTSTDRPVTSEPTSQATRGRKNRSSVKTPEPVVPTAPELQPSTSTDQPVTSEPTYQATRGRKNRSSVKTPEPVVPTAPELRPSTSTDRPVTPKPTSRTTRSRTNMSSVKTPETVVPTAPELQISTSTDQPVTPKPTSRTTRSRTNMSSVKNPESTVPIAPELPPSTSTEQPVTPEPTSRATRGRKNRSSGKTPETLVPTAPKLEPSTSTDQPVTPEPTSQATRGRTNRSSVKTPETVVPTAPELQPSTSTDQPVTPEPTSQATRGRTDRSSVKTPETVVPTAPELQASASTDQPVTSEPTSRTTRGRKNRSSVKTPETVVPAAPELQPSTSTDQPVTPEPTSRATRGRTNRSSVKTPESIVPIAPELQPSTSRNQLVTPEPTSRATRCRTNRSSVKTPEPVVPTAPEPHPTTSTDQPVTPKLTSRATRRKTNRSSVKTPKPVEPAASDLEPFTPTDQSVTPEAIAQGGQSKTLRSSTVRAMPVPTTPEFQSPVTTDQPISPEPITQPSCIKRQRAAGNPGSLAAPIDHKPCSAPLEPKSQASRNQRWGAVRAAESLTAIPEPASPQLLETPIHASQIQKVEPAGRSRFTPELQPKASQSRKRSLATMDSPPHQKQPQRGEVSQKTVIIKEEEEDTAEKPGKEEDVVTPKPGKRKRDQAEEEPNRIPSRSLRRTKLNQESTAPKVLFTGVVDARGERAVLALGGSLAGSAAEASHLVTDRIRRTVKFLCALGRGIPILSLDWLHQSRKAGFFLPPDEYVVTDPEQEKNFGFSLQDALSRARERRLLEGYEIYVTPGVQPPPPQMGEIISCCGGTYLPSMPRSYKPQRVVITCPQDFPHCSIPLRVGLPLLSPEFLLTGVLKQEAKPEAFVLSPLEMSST

Assay [1] has as its target T1, FLAG-tagged Treacle (mouse Tcof1, full length) (mouse) (UniProt O08784).
T1 sequence: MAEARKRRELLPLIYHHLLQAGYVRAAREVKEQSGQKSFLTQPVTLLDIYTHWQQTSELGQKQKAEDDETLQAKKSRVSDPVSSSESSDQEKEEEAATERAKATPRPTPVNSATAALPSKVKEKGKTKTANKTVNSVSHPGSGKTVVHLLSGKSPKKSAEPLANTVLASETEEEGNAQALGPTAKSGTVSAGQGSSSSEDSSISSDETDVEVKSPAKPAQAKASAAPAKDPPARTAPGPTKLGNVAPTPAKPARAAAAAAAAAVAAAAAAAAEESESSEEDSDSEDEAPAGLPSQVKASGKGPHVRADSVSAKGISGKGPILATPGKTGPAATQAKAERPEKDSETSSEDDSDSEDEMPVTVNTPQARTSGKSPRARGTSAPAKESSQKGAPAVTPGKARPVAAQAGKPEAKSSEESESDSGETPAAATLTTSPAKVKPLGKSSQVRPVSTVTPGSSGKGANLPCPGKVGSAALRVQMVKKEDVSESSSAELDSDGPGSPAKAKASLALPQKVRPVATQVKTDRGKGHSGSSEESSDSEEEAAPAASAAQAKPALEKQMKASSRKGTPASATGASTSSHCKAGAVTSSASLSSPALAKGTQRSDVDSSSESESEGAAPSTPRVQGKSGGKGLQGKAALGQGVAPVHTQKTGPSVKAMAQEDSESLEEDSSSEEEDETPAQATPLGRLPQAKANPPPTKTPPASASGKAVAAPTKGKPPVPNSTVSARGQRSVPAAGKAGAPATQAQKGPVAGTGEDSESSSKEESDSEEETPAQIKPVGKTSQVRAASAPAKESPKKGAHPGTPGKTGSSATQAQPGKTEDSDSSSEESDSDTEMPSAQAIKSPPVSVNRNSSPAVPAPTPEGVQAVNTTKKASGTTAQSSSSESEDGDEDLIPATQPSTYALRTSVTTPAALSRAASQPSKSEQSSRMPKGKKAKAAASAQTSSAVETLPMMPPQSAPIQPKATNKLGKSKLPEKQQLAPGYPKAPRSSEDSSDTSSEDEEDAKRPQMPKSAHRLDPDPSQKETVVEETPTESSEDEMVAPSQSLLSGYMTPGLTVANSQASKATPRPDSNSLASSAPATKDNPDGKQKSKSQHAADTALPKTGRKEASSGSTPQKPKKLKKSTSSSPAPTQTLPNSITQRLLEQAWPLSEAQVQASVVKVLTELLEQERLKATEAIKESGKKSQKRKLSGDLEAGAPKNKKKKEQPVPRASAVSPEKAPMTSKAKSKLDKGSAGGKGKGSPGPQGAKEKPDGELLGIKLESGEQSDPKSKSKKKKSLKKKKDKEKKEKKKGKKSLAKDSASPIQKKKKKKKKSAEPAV
Kind of assay: co-IP; anti-FLAG agarose from lysates of Tcof1/293-FRT and 293-FRT cells (50 mM Tris-HCl pH 7.5, 120 mM NaCl, 0.5% NP-40, 1 mM EDTA; benzonase-treated), 4 °C overnight, western blot. In general terms: In western blotting, separated proteins are transferred to a membrane and probed.

Assay [2] deals with T2, endogenous Treacle (TCOF1) (human (endogenous in HEK293-T)) (UniProt Q13428).
T2 sequence: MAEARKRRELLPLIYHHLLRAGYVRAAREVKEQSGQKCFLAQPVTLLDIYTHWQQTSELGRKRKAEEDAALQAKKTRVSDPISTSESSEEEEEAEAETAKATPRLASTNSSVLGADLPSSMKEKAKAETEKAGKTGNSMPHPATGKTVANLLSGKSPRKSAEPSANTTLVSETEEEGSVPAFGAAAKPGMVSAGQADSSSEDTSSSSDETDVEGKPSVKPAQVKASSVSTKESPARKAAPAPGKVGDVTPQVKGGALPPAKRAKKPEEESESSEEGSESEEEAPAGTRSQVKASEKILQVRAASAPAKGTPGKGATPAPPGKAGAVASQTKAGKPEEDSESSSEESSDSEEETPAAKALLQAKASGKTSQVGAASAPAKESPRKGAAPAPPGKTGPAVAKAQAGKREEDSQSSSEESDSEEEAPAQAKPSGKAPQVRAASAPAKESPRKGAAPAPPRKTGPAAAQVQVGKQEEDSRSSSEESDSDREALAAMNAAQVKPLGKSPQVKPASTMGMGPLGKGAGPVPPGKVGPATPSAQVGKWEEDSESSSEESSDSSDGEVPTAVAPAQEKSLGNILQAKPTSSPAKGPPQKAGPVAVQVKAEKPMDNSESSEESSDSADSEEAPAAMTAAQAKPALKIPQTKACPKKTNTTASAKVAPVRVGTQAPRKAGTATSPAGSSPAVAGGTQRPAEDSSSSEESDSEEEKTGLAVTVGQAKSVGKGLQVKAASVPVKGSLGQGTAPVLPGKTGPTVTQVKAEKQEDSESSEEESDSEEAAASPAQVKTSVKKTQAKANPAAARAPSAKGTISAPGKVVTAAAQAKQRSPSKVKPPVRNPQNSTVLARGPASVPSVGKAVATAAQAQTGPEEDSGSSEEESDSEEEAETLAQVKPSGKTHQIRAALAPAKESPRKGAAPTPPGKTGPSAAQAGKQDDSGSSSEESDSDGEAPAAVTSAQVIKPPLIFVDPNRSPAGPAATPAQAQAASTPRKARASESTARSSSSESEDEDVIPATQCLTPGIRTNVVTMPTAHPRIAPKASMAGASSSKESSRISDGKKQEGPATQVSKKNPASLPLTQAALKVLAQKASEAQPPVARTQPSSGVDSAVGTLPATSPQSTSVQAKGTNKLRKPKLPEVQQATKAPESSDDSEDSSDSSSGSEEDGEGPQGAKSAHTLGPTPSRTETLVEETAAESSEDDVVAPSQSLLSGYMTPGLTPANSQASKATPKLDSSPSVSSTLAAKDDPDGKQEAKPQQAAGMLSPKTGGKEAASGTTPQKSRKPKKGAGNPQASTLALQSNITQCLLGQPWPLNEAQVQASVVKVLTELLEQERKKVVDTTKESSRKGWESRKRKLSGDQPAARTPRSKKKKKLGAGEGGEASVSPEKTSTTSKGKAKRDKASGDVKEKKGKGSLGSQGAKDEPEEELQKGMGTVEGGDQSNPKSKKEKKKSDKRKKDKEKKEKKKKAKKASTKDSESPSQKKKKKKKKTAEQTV
Kind of assay: co-IP; anti-TCOF1 antibody and Protein A-sepharose from lysate of non-irradiated HEK293-T cells (50 mM Tris-HCl pH 7.5, 120 mM NaCl, 0.5% NP-40, 1 mM EDTA; benzonase-treated), 4 °C, western blot; control without antibody.

Results are given in words; binding and its absence hold for the method and conditions named. In cells and extracts the contact can be indirect. Some results given as binding are weak or reduced against the parent protein; the word gives no strength. For part of these data: Tags and fused reporters may be left off the sequences shown.

Take “endogenous Rad50 (from UniProt Q92878 1-1312)”: the binding entry in assay [1] and in assay [2] was “binds” throughout.
In the case of “endogenous Nbs1 (from UniProt O60934 1-754)”, the binding result in assay [1] and in assay [2] was “binds” each time.
On to “endogenous MDC1 (from UniProt Q14676 1-2089)”, for which the binding result in assay [1] and in assay [2] was “binds” each time.
